# Experimental data published in article PMC4161973.
# By UniProt entry, the sequences of proteins in these tests, tags left out. Where a name states a change or a piece, a line headed by the entry shows the natural chain unless it says otherwise.
# UniProt P39938: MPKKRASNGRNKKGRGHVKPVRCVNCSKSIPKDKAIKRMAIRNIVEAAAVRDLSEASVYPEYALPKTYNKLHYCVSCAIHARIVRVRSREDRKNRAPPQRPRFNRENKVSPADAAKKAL
# These are yes or no findings as the source states them, for the method shown. In cells and extracts the contact can be indirect. A result given as binding can be weak or reduced; the word gives no strength. Sequences can lack the tags named with a protein.
# Key:
# GST-Pse1 (S. cerevisiae) = target: T1, GST-Pse1 (S. cerevisiae) (UniProt P32337); assay: pull-down; dissociation kinetics: pre-immobilised GST-importin:eS26^FLAG complexes with buffer, 1.5 µM or 375 nM RanGTP or Tsr2; samples withdrawn at 1, 2, 4 and 8 min; only the target purified
# T1 sequence: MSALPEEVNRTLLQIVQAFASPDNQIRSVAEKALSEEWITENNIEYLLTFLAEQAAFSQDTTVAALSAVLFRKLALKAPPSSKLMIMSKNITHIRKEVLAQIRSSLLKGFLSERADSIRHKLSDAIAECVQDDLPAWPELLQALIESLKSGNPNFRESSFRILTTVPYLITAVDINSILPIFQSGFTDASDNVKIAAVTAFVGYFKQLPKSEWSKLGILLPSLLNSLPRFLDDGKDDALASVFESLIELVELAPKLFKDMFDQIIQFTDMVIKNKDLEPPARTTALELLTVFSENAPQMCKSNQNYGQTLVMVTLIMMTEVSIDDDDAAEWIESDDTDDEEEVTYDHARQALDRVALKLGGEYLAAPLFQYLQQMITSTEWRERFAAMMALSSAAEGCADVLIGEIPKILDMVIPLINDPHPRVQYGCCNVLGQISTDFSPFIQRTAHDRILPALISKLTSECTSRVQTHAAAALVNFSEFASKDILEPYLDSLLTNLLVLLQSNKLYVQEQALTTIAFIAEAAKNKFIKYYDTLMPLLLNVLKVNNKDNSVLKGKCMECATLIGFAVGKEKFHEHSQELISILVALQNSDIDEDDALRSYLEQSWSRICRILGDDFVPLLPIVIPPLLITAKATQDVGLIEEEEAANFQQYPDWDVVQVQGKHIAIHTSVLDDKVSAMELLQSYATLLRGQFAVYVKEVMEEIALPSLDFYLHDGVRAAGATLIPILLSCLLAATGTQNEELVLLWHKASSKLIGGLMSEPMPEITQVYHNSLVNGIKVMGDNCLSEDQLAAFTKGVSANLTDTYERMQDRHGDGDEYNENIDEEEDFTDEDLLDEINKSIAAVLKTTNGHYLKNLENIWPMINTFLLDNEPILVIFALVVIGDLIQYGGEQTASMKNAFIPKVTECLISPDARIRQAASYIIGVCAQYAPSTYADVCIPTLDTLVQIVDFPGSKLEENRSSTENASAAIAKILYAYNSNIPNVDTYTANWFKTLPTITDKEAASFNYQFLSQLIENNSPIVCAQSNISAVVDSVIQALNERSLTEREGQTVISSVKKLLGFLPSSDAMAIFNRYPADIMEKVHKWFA
# [1] = target: T2, GST-Kap104 (S. cerevisiae) (UniProt P38217); assay: as above
# T2 sequence: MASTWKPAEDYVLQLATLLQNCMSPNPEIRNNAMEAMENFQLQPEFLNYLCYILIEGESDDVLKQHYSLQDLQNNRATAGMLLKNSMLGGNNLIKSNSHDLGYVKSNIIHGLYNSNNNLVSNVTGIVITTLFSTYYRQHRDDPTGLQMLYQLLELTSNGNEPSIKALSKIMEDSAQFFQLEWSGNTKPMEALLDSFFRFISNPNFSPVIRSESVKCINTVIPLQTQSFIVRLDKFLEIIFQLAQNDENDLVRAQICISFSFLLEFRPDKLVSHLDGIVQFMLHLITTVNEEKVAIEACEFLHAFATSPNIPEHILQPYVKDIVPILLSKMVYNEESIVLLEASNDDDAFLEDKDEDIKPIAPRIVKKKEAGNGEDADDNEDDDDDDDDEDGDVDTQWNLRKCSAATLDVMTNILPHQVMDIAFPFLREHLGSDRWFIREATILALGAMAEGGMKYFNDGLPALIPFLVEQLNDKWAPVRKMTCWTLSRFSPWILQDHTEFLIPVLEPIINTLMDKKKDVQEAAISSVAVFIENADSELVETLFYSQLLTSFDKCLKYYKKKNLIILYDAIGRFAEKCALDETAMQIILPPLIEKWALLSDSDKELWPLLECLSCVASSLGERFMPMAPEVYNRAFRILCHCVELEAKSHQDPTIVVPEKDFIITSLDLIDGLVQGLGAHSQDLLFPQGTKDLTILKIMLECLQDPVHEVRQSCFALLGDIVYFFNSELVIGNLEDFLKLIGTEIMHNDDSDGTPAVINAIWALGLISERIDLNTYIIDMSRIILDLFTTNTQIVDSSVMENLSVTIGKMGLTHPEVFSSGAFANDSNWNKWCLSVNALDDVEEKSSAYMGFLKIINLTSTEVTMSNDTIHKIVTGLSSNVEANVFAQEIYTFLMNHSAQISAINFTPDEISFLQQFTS
substance,measurement,setting,value
eS26^FLAG (from UniProt P39938),binding,GST-Pse1 (S. cerevisiae),binds
same,binding,[1],binds
